In US20230235034A1:
No constants are given. Whether binding was seen depends on the method and setting. Some results given as binding are weak or reduced against the parent protein; the word gives no strength.

Columns and labels:
[1] = target: ΔK18 fragment of tau (Homo sapiens (Human)) (UniProt P10636); assay: western blot of tau fragments
[2] = target: ΔK18-A fragment of tau (Macaca mulatta (Rhesus macaque)) (UniProt P57786); assay: western blot of tau fragments
ABP fragment of tau = ABP fragment of tau (UniProt P10636); assay: western blot of tau fragments
[3] = target: pathological tau in Pick's disease (PiD) brain tissue (human) (UniProt P10636); assay: immunohistochemistry on human brain sections
mouse T40 tau (mouse) = mouse T40 tau (mouse) (UniProt P10637); assay: western blot
[4] = target: full length tau isoform T44 (UniProt P10636); assay: western blot
[5] = target: full length tau isoform T43 (UniProt P10636); assay: western blot

Measured: binding

B1: SKT82 (antibody, mouse IgG2a, V domains shown)
VH: EVQLQQSGAELVRSGASVKLSCTASGFNIKDYYMHWVKQRPEQGLEWIGWFDPENGDAEYAPKFQDKATMTADTSSNAAYLQLSSLTSEDTAVYYCNGYLYWGQGTLVTVSS
VL: DVLMTQTPLSLPVSLGDQASISCRSSQNIVHNNGNTYLEWYLQKPGQSPKLLIYKVSNRFSGVPDRFSGSGSGTDFTLKISRVEAEDLGIYYCFQGSHVPHTFGGGTRLEIK
binds: all assays above
